Results are given in words; binding and its absence hold for the method and conditions named. In cells and extracts the contact can be indirect. Some results given as binding are weak or reduced against the parent protein; the word gives no strength.
T1: follistatin-like 1 (FSTL1) (human (endogenous in A253)) (UniProt Q12841)
T1 sequence: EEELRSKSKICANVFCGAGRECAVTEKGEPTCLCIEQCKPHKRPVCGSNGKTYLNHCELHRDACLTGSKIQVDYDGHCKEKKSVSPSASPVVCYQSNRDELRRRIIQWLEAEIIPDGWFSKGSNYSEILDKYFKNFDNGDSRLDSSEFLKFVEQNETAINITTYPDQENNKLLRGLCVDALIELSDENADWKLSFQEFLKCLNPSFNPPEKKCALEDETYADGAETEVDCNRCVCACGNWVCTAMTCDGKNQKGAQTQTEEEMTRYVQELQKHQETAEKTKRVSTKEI

Chains of the proteins cited; added tags and fusions are not shown. Residues count along the entry.
UniProt O00744, residues 29-389: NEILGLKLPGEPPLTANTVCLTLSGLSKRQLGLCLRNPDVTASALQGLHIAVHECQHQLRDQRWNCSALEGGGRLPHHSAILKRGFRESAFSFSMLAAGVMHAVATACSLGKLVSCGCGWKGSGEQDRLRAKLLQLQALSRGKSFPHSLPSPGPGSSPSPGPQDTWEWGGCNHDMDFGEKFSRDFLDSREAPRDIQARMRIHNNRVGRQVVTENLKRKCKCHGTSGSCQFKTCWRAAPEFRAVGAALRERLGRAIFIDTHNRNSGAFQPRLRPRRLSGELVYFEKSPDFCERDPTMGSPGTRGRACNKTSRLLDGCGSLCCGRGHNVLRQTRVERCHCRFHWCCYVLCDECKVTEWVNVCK


Molecular target: T1, follistatin-like 1 (FSTL1) (human (endogenous in A253))
Assay: co-IP; endogenous proteins from HNSCC cell lysates (RIPA buffer, sonicated), Pierce co-immunoprecipitation kit, Western blot; control or shDIAPH1 cells for the DIAPH1 and Arpin precipitations; IgG control for the FSTL1 precipitation

| binding | Molecule |
| --- | --- |
| no binding | Wnt10b (from UniProt O00744 29-389) |
| no binding | Wnt4 (protein, UniProt P56705 23-351) SNWLYLAKLSSVGSISEEETCEKLKGLIQRQVQMCKRNLEVMDSVRRGAQLAIEECQYQFRNRRWNCSTLDSLPVFGKVVTQGTREAAFVYAISSAGVAFAVTRACSSGELEKCGCDRTVHGVSPQGFQWSGCSDNIAYGVAFSQSFVDVRERSKGASSSRALMNLHNNEAGRKAILTHMRVECKCHGVSGSCEVKTCWRAVPPFRQVGHALKEKFDGATEVEPRRVGSSRALVPRNAQFKPHTDEDLVYLEPSPDFCEQDMRSGVLGTRGRTCNKTSKAIDGCELLCCGRGFHTAQVELAERCSCKFHWCCFVKCRQCQRLVELHTCR |
| binds | Wnt7a (protein, UniProt O00755 32-349) LGASIICNKIPGLAPRQRAICQSRPDAIIVIGEGSQMGLDECQFQFRNGRWNCSALGERTVFGKELKVGSREAAFTYAIIAAGVAHAITAACTQGNLSDCGCDKEKQGQYHRDEGWKWGGCSADIRYGIGFAKVFVDAREIKQNARTLMNLHNNEAGRKILEENMKLECKCHGVSGSCTTKTCWTTLPQFRELGYVLKDKYNEAVHVEPVRASRNKRPTFLKIKKPLSYRKPMDTDLVYIEKSPNYCEEDPVTGSVGTQGRACNKTAPQASGCDLMCCGRGYNTHQYARVWQCNCKFHWCCYVKCNTCSERTEMYTCK |
| no binding | Wnt5a (protein, UniProt P41221 62-380) IIGAQPLCSQLAGLSQGQKKLCHLYQDHMQYIGEGAKTGIKECQYQFRHRRWNCSTVDNTSVFGRVMQIGSRETAFTYAVSAAGVVNAMSRACREGELSTCGCSRAARPKDLPRDWLWGGCGDNIDYGYRFAKEFVDARERERIHAKGSYESARILMNLHNNEAGRRTVYNLADVACKCHGVSGSCSLKTCWLQLADFRKVGDALKEKYDSAAAMRLNSRGKLVQVNSRFNSPTTQDLVYIDPSPDYCVRNESTGSLGTQGRLCNKTSEGMDGCELMCCGRGYDQFKTVQTERCHCKFHWCCYVKCKKCTEIVDQFVCK |
